# Several values for one entry are separate records, joined by “and”; a condition that tells them apart may be missing. Equal entries are not always repeated. Among all 300,000 compounds or so, about 5,400 (1.8%) were called active. The inconclusive results got no clear call from the source; some entries with a clear call stand among them for comparison. The call rests on the fitted dose curve; tested in HEK293 cells. Potencies beside an inconclusive call are fits to weak or partial responses and may not hold up.
# Assay: qHTS for inhibitors of binding or entry into cells for Marburg Virus
# Conditions: Marburg virus pseudotyped entry inhibition, cell reporter; series mostly up to 37.8 µM
# Potency means the concentration at half of the fitted maximal effect.
row,SMILES,Potency
1,Cc1ccc(NC(=O)CCS(=O)(=O)c2cccc3nsnc23)c(C)c1,inactive
2,O=C(Nc1cc(Cl)ccc1O)c1cc2n(n1)C(C(F)(F)F)CC(c1ccc3c(c1)OCO3)N2 (stereo not drawn),"inconclusive: 35.5 µM [inhibitor, single point]"
3,Cc1cccc(-n2[nH]c(C)c(C=Nc3ccc4[nH]c(=O)[nH]c4c3)c2=O)c1,"inconclusive: 0.891 µM [inhibitor, single point]"
4,COc1ccc(CC(=O)N/N=C(\C)CC(=O)Nc2ccc(N(C)C)cc2)cc1OC,"inconclusive: 1 µM [activator, full curve, poor fit]"
5,COc1ccc(OC)c(NS(=O)(=O)c2ccc(N3CCCC3=O)cc2)c1,"inconclusive: 3.55 µM [inhibitor, partial curve, poor fit]"
6,COC(=O)c1nc(NC(C)=O)n[nH]1,inactive
7,CCN(Cc1ccccc1)C(=O)CN1C(=O)COc2ccc(S(=O)(=O)N3CCCCCC3)cc21,inactive
8,CCCC(c1nnnn1C1CCCCC1)N1CCN(C(=O)c2ccco2)CC1 (stereo not drawn),inactive
9,Cn1cnnc1SCC(=O)N1CCN(C(=O)c2ccco2)CC1,inactive
10,Cc1cc(C(=O)COc2nncc3ccccc23)c(C)n1C,"inconclusive: 0.112 µM [inhibitor, full curve, poor fit]"
11,CCc1ccc(NC(=S)N(Cc2ccccc2)Cc2ccccn2)cc1,"inconclusive: 5.62 µM [inhibitor, full curve, poor fit]"
12,Cc1ccc(SCc2cc(=O)[nH]c(N3CCCCC3)n2)cc1,"inconclusive: 9.2 µM [inhibitor, partial curve]"
13,Cc1ccc(S(=O)(=O)N/N=C2/CC(c3ccccc3)Oc3ccccc32)cc1[N+](=O)[O-] (stereo not drawn),inactive
14,Cc1cccc(NC(=S)N=Nc2c(O)n(C)c3ccc(S(=O)(=O)N4CCOCC4)cc23)c1,"inactive and inconclusive: 1.58 µM [inhibitor, full curve, poor fit]"
15,CCOC(=O)C1(CCOc2ccccc2)CCN(CCCn2cccn2)CC1,"inconclusive: 11.2 µM [inhibitor, partial curve, poor fit]"
16,CSc1ccc(C2Nc3ccccc3-c3cc(C)nn32)cc1 (stereo not drawn),"inconclusive: 0.164 µM [inhibitor, full curve, poor fit]"
17,Cc1ccc(S(=O)(=O)N2CCCC(C(=O)N3CCN(c4ccccc4)CC3)C2)cc1 (stereo not drawn),"inconclusive: 10 µM [inhibitor, partial curve]"
18,CCOC(=O)C1CCN(C(=O)COC(=O)COc2ccccc2OC)CC1,"inconclusive: 29.1 µM [activator, single point]"

# An excerpt from above in order of formula weight, high to low.
row,SMILES,Potency
17,Cc1ccc(S(=O)(=O)N2CCCC(C(=O)N3CCN(c4ccccc4)CC3)C2)cc1 (stereo not drawn),"inconclusive: 10 µM [inhibitor, partial curve]"
9,Cn1cnnc1SCC(=O)N1CCN(C(=O)c2ccco2)CC1,inactive
12,Cc1ccc(SCc2cc(=O)[nH]c(N3CCCCC3)n2)cc1,"inconclusive: 9.2 µM [inhibitor, partial curve]"
